# The whole screen tested about 400,000 compounds, of which about 13,000 (3.2%) were called active. This list was built around the results that the source calls inconclusive (neither active nor inactive); the mix of calls is not that of the screen. The call rests on the fitted dose curve; in most records, active means well fitted cell-killing curve with a large enough effect; inconclusive means small, poorly fitted or top-dose-only effect, or effect the other way; inactive means flat fitted curve, though single readings scatter. Potencies of inconclusive entries are doubtful fits and often do not repeat.
# Assay: qHTS assay for MDR1-selective chemotherapeutics: Primary screen using the drug-selected MDR subline cells KB-V1; further: nearly all actives have a fitted effect of over 60% in size
# Settings: KB-V1 MDR cells viability, CellTiter-Glo, 72 h; activity change, negative = cytotoxicity: at 46.1 µM (top of the series)
# Summary of the method: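 KB-V1 MDR subline cells in DMEM (phenol-red free, 10% FBS) exposed to compounds in qHTS concentration series for 72 h at 37 degrees C. Viability read by CellTiter-Glo luminescence; concentration-effect curves fitted after normalization and correction.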
# On the % scale 0 is the no-effect control and ±100 the full control effect; potency means the concentration at half of the fitted maximal effect.
Structure (SMILES),Potency,"activity change, negative = cytotoxicity"
CCC(=O)c1cc2c(C)cc(=O)oc2c(C)c1OC(=O)C(C)C,"inconclusive: 14.6 µM [cytotoxic, partial curve, poor fit]",–
CC(C)Cn1c(SCC(=O)O)nnc1-c1cccc(S(=O)(=O)N2CCOCC2)c1,"inconclusive: 4.11 µM [rising, full curve]",–
Cc1cc(C)c(NC(=O)CN2C(=O)C3(SCC(=O)N3c3ccc(F)cc3)c3ccccc32)c(C)c1 (stereo unspecified),active: 14.6 µM,–
O=C(O)/C=C/C(=O)Nc1ccc(-c2ccccc2)cc1,–,inconclusive: 0.502%
CC(=O)Nc1ccc(C(=O)NCCc2ccccc2)cc1,"inconclusive: 29.1 µM [rising, single point]",–
O=[N+]([O-])c1ccc(N2CCN(S(=O)(=O)c3ccc(Cl)cc3)CC2)cc1NCC1CCCO1 (stereo unspecified),"inconclusive: 8.2 µM [cytotoxic, partial curve]",–
O=C1CCC[C@@H]2Cc3nc4ccc(O)cc4cc3[C@@H]3CCN1[C@H]23,inactive,–
Cc1ccc(N2C(S)=C(C#N)C(=O)NC2c2ccco2)cc1 (stereo unspecified),inactive,–
O=C(NCc1ccc(C(F)(F)F)cc1)C12CN(Cc3ccccc3)CC1C(c1cccc([N+](=O)[O-])c1)=NO2 (stereo unspecified),inactive,–
CCN1CCN(c2nc3sc4c(c3c(=O)n2-c2ccc(OC)cc2)CCCCC4)CC1,inactive,–
COc1ccc(N=C2S/C(=C\c3cc(C)n(C)c3C)C(=O)N2CC(C)C)cc1,active: 2.59 µM,–
COc1ccc(NC(=O)Nc2cccc(C)n2)cc1,"inconclusive: 32.6 µM [rising, single point]",–
CCc1ccc(CNC(=O)Cn2nc(-c3ccc(Cl)cc3)ccc2=O)cc1,–,inconclusive: 1.32%
O=C(Nc1nccs1)c1ccc(Cl)c(S(=O)(=O)N2CCOCC2)c1,inactive,–
Cc1ccc(-c2nnc3n2N=C(c2ccc(Br)cc2)CS3)cc1,inactive,–
C/C(CC(=O)Nc1ccc(C)c(Cl)c1)=N\NC(=O)c1ccco1,"inconclusive: 23.1 µM [rising, single point]",–
O=C(c1ccc2[nH]c(=O)c(=O)[nH]c2c1)N1CCN(Cc2ccccc2)CC1,"inconclusive: 9.2 µM [rising, partial curve, poor fit]",–
CCc1c(C)nc2ncnn2c1N1CCC(C(=O)NCc2cccc(OC)c2)CC1,active: 23.1 µM,–
Cc1ccc2nc(SCC(=O)Nc3cc(C)on3)nc(=O)n2c1,inactive,–
COc1ccc(C(CNC(=O)c2cccc(S(=O)(=O)Nc3ccc(C)cc3)c2)N2CCOCC2)cc1 (stereo unspecified),"inconclusive: 29.1 µM [cytotoxic, single point]",–
COc1cccc(NC(=O)c2ccc3snnc3c2)c1,"inconclusive: 13 µM [cytotoxic, partial curve]",–
CCCOc1ccc(/C(CC)=N/NC(=O)C2(C)CC2(Br)Br)cc1 (stereo unspecified),inactive,–
Cn1c(SCc2ccc(Br)cc2)nc2c(c1=O)SCC2,active: 20.6 µM,–

Structure (SMILES),Potency,"activity change, negative = cytotoxicity"
O=P(O)(C(O)c1ccccc1)C(O)c1ccccc1 (stereo unspecified),inactive,–
O=S(=O)(Nc1ccccc1O)c1ccc(Cl)nc1,"inconclusive: 25.9 µM [rising, single point]",–
Cc1ccc(N(CC(=O)Nc2ccc(F)cc2F)S(=O)(=O)c2cccs2)cc1,"inconclusive: 32.6 µM [cytotoxic, single point]",–
Nc1nc(SCC(=O)Nc2ccc(Cl)cn2)n[nH]1,inactive,–
CCN(CC)CCN(Cc1cc2cc3c(cc2[nH]c1=O)OCO3)C(=S)NCCCN(C)C,"inconclusive: 29.1 µM [rising, partial curve, poor fit]",–
O=C(Nc1nc(=O)n(C(=O)c2cccc(C(F)(F)F)c2)s1)c1ccccc1,inactive,–
Cc1ccccc1C(=O)N=c1ccn(-c2nc3ccccc3nc2NS(=O)(=O)c2ccccc2)cc1,inactive,–
CCC(C)C(=O)N1c2ccccc2C(=C2SC(C(=O)OC)=C(C(=O)OC)S2)C(=S)C1(C)C (stereo unspecified),"inconclusive: 35.5 µM [cytotoxic, single point]",–
C/C(N)=C(/C#N)C(=O)CSc1nc2cc(Cl)ccc2s1,"inconclusive: 23.1 µM [cytotoxic, single point]",–
O=C(CSc1nc2ccccc2[nH]1)N1CCOCC1,"inconclusive: 20.6 µM [rising, single point]",–
COc1cc(NC(=O)Nc2cccc([N+](=O)[O-])c2)cc(OC)c1,"inconclusive: 20.6 µM [cytotoxic, partial curve, poor fit]",–
CN(c1ccc(C(=O)Nc2cccnc2)cc1)S(=O)(=O)c1ccccc1,"inconclusive: 23.1 µM [cytotoxic, single point]",–
Cc1cc(C)nc(SCC(=O)N(C)CC(=O)Nc2ccccc2Br)n1,"inconclusive: 14.6 µM [cytotoxic, single point]",–
COc1ccc(C)cc1NC(=O)c1cc2ccccc2o1,"inconclusive: 14.6 µM [cytotoxic, partial curve]",–
c1cnc(Sc2ccc3nnnn3n2)nc1,"inconclusive: 29.1 µM [rising, single point]",–
Cc1cc(N2CCN(C(C(=O)NC3CCCC3)c3ccco3)CC2)c2ccccc2n1 (stereo unspecified),"inconclusive: 7.31 µM [cytotoxic, partial curve]",–
C=CCn1c(C)cc(C(=O)COC(=O)c2ccc(N)c([N+](=O)[O-])c2)c1C,inactive,–
COc1ccc(-c2nnn(CC(=O)N(Cc3ccc(F)cc3)C(C(=O)NC3CCCC3)c3ccc(F)cc3)n2)cc1 (stereo unspecified),"inconclusive: 5.8 µM [cytotoxic, partial curve, poor fit]",–
COc1nc(C)ccc1-c1noc(-c2ccco2)n1,"inconclusive: 29.1 µM [cytotoxic, single point]",–
CC(=O)Nc1cccc(-c2ccnc3c2CC(C)(C(=O)NCCc2ccccc2)O3)c1 (stereo unspecified),"inconclusive: 18.4 µM [cytotoxic, single point]",–
CN(C)c1ncc(S(=O)(=O)c2ccc(Cl)cc2)c(-c2ccc(Cl)cc2Cl)n1,active: 18.4 µM,–
COc1ccc(F)cc1-c1cc(NC=O)c2ncc(-c3cc(OC)c(OC)c(OC)c3)n2c1,active: 6.51 µM,–
CCOC(=O)c1cc2c(=O)n3ccccc3nc2n(CC2CCCO2)c1=NC(=O)c1cccc(C)c1 (stereo unspecified),"inconclusive: 29.1 µM [cytotoxic, single point]",–

# Some values from above:
# Entry of `O=C(CSc1nc2ccccc2[nH]1)N1CCOCC1` under Potency: inconclusive: 20.6 µM [rising, single point]
# Entry of `COc1cc(NC(=O)Nc2cccc([N+](=O)[O-])c2)cc(OC)c1` under Potency: inconclusive: 20.6 µM [cytotoxic, partial curve, poor fit]
# Entry of `CCN(CC)CCN(Cc1cc2cc3c(cc2[nH]c1=O)OCO3)C(=S)NCCCN(C)C` under Potency: inconclusive: 29.1 µM [rising, partial curve, poor fit]
